Taken from: PubChem BioAssay AID1259308 (NCATS, 2017)
This is one part, drawn at random, of about 59,000 deposited reagents. Of all reagents, about 1,510 (2.6%) were called active. 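Calls use total luciferase alone and ignore viability, so some active siRNAs may act by altering cell number.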 The numbers tell different reagents against one gene apart. Further read-outs or replicates are left out here.

Test: 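Genes whose loss raises luciferase production in HEK293 cells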 (primary screen)
Cell system: human HEK293 embryonic kidney cells stably expressing firefly luciferase (HEK-CMV-Luc2-Hygro)
Reagent: single siRNA against human genes, 0.8 pmol siRNA per well
Time to read-out: 72 h
Read-out: 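Luciferase light (ONE-Glo) measured on one replicate plate set and viability (CellTiter-Glo) on the other, scaled to a negative control siRNA, with robust z-scores and luciferase per cell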
Direction: total luciferase, z-score and total luciferase, % of control: higher = more reporter protein produced; luciferase per cell, z-score: higher = more reporter output per viable cell
Active means: 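Active when the median/MAD z-score for overall luciferase is greater than 3; a gene was taken forward for validation with new siRNAs if at least two of its three siRNAs passed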
Meaning of the calls: active = raised luciferase; inactive = no rise

Gene | reagent no. | total luciferase, z-score | total luciferase, % of control | luciferase per cell, z-score | Call
ARHGAP45 (Rho GTPase activating protein 45) | 1 | -0.88 | 64.4 | -0.668 | inactive
ARHGAP45 (Rho GTPase activating protein 45) | 2 | -0.928 | 63.4 | -0.97 | inactive
ARHGAP45 (Rho GTPase activating protein 45) | 3 | 0.456 | 90.9 | -0.304 | inactive
C18orf54 (chromosome 18 open reading frame 54) | 1 | 0.0706 | 83.3 | 0.274 | inactive
C18orf54 (chromosome 18 open reading frame 54) | 2 | -0.557 | 70.8 | 0.241 | inactive
C18orf54 (chromosome 18 open reading frame 54) | 3 | -0.146 | 79 | 0.487 | inactive
TESMIN (testis expressed metallothionein like protein) | 1 | 3.73 | 156 | 2.64 | active
TESMIN (testis expressed metallothionein like protein) | 2 | -1.51 | 51.9 | -1.31 | inactive
TESMIN (testis expressed metallothionein like protein) | 3 | -1.31 | 55.8 | -1.56 | inactive
C10orf88 (chromosome 10 open reading frame 88) | 1 | -0.0758 | 80.4 | -0.443 | inactive
C10orf88 (chromosome 10 open reading frame 88) | 2 | 0.437 | 90.6 | -0.0232 | inactive
C10orf88 (chromosome 10 open reading frame 88) | 3 | -0.429 | 73.4 | -0.328 | inactive
TXN2 (thioredoxin 2) | 1 | -0.218 | 77.6 | -0.00438 | inactive
TXN2 (thioredoxin 2) | 2 | -2.25 | 37 | -0.855 | inactive
TXN2 (thioredoxin 2) | 3 | -1.73 | 47.4 | -0.799 | inactive
OR1L3 (olfactory receptor family 1 subfamily L member 3) | 1 | 3.62 | 154 | 1.95 | active
OR1L3 (olfactory receptor family 1 subfamily L member 3) | 2 | -1.55 | 51 | -0.991 | inactive
OR1L3 (olfactory receptor family 1 subfamily L member 3) | 3 | 0.15 | 84.9 | -0.168 | inactive
NOC2L (NOC2 like nucleolar associated transcriptional repressor) | 1 | -0.389 | 74.1 | 0.752 | inactive
NOC2L (NOC2 like nucleolar associated transcriptional repressor) | 2 | -0.54 | 71.2 | -0.307 | inactive
NOC2L (NOC2 like nucleolar associated transcriptional repressor) | 3 | 0.341 | 88.7 | 0.192 | inactive
MRPL57 (mitochondrial ribosomal protein L57) | 1 | 0.0568 | 83 | -0.411 | inactive
MRPL57 (mitochondrial ribosomal protein L57) | 2 | -1.24 | 57.3 | -1.21 | inactive
MRPL57 (mitochondrial ribosomal protein L57) | 3 | -1.22 | 57.5 | -0.214 | inactive
ZNF175 (zinc finger protein 175) | 1 | -0.422 | 73.5 | -0.295 | inactive
ZNF175 (zinc finger protein 175) | 2 | 1.26 | 107 | 0.819 | inactive
ZNF175 (zinc finger protein 175) | 3 | 0.574 | 93.3 | 0.101 | inactive
PEX6 (peroxisomal biogenesis factor 6) | 1 | -1.87 | 44.7 | -0.839 | inactive
PEX6 (peroxisomal biogenesis factor 6) | 2 | -1.5 | 52.1 | -2.33 | inactive
PEX6 (peroxisomal biogenesis factor 6) | 3 | 1.51 | 112 | 0.761 | inactive
OR1I1 (olfactory receptor family 1 subfamily I member 1) | 1 | 0.487 | 91.6 | 0.32 | inactive
OR1I1 (olfactory receptor family 1 subfamily I member 1) | 2 | 1.6 | 114 | 1.11 | inactive
OR1I1 (olfactory receptor family 1 subfamily I member 1) | 3 | 0.738 | 96.6 | 0.929 | inactive
LOC646034 (retired record) | 1 | 1.74 | 116 | 1.24 | inactive
LOC646034 (retired record) | 2 | -0.389 | 74.2 | 0.0551 | inactive
LOC646034 (retired record) | 3 | 1.04 | 103 | 0.505 | inactive
WASH5P (WASP family homolog 5, pseudogene) | 1 | 0.255 | 87 | 0.795 | inactive
WASH5P (WASP family homolog 5, pseudogene) | 2 | -0.15 | 78.9 | -0.137 | inactive
WASH5P (WASP family homolog 5, pseudogene) | 3 | 0.451 | 90.9 | 1.47 | inactive
SCGB1D1 (secretoglobin family 1D member 1) | 1 | -0.371 | 74.5 | -0.454 | inactive
SCGB1D1 (secretoglobin family 1D member 1) | 2 | -0.0198 | 81.5 | 1.37 | inactive
SCGB1D1 (secretoglobin family 1D member 1) | 3 | -0.728 | 67.4 | -1.01 | inactive
OR5K3 (olfactory receptor family 5 subfamily K member 3) | 1 | -2.46 | 32.9 | -0.94 | inactive
OR5K3 (olfactory receptor family 5 subfamily K member 3) | 2 | -0.11 | 79.7 | 0.0603 | inactive
OR5K3 (olfactory receptor family 5 subfamily K member 3) | 3 | -1.87 | 44.8 | -2.65 | inactive
PSMD2 (proteasome 26S subunit ubiquitin receptor, non-ATPase 2) | 1 | 0.467 | 91.2 | 4.78 | inactive
PSMD2 (proteasome 26S subunit ubiquitin receptor, non-ATPase 2) | 2 | -0.784 | 66.3 | 3.06 | inactive
PSMD2 (proteasome 26S subunit ubiquitin receptor, non-ATPase 2) | 3 | -2.05 | 41.1 | 0.646 | inactive
TRAPPC9 (trafficking protein particle complex subunit 9) | 1 | 1.81 | 118 | 1.7 | inactive
TRAPPC9 (trafficking protein particle complex subunit 9) | 2 | 2.25 | 127 | 1.81 | inactive
TRAPPC9 (trafficking protein particle complex subunit 9) | 3 | -1.37 | 54.5 | -0.323 | inactive
RWDD2A (RWD domain containing 2A) | 1 | 0.864 | 99.1 | 1.54 | inactive
RWDD2A (RWD domain containing 2A) | 2 | -0.111 | 79.7 | -0.744 | inactive
RWDD2A (RWD domain containing 2A) | 3 | -0.322 | 75.5 | -0.627 | inactive
OR10W1 (olfactory receptor family 10 subfamily W member 1) | 1 | -0.0671 | 80.6 | -0.313 | inactive
OR10W1 (olfactory receptor family 10 subfamily W member 1) | 2 | -0.765 | 66.7 | 0.948 | inactive
OR10W1 (olfactory receptor family 10 subfamily W member 1) | 3 | -1.29 | 56.3 | -1.79 | inactive

No new results follow: 3 of the entries above.
Gene | reagent no. | total luciferase, z-score | total luciferase, % of control | luciferase per cell, z-score | Call
C10orf88 (chromosome 10 open reading frame 88) | 2 | 0.437 | 90.6 | -0.0232 | inactive
C10orf88 (chromosome 10 open reading frame 88) | 3 | -0.429 | 73.4 | -0.328 | inactive
TXN2 (thioredoxin 2) | 1 | -0.218 | 77.6 | -0.00438 | inactive
